Results of single-concentration screens

By UniProt entry, the sequences of proteins in these tests, tags left out. Residues count along the entry.
UniProt I6X8D2, whole entry: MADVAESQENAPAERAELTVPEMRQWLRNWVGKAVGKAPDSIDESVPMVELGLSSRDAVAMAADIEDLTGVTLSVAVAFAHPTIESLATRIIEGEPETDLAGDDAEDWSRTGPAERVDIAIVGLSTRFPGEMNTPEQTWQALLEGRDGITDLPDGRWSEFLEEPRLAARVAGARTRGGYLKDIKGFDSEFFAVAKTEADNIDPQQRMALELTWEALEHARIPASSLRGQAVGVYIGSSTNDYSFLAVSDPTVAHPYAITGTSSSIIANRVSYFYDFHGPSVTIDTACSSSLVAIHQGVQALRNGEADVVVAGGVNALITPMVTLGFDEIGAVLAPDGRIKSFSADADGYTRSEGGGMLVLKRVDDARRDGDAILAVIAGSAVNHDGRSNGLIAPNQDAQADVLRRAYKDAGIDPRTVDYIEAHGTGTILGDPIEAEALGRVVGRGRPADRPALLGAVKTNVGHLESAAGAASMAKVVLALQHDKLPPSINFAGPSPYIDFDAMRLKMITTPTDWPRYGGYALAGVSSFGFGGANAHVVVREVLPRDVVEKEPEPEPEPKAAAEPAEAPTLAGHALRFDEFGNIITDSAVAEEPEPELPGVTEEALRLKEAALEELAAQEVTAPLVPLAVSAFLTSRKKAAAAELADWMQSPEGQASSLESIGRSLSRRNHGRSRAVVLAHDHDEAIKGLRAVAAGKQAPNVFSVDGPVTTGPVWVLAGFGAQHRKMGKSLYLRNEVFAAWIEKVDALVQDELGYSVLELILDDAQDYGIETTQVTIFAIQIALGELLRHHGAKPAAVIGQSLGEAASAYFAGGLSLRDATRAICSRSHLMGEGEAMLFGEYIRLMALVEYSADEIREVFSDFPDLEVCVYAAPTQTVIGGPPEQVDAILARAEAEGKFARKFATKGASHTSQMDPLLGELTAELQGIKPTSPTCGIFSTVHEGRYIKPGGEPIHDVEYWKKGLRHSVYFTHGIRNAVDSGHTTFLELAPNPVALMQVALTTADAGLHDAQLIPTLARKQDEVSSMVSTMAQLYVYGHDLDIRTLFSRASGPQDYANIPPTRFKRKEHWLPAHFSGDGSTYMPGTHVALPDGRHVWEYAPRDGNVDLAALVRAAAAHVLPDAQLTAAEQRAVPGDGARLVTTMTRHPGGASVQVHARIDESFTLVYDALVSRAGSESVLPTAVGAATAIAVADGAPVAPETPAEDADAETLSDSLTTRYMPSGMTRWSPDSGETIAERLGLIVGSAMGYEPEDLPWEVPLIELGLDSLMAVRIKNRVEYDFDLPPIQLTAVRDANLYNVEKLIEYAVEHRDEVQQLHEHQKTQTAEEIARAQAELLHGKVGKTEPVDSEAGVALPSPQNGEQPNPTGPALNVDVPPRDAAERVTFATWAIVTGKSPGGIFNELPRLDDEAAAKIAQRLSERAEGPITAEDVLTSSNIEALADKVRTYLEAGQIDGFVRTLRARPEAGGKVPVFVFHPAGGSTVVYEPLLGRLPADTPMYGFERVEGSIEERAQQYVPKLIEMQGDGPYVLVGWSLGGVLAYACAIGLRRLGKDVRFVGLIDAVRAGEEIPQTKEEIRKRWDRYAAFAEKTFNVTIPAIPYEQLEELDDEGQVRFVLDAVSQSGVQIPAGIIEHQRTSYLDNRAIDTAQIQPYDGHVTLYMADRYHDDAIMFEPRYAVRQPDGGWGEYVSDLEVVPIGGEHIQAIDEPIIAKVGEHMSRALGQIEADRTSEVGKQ
UniProt A4I591, 1-473: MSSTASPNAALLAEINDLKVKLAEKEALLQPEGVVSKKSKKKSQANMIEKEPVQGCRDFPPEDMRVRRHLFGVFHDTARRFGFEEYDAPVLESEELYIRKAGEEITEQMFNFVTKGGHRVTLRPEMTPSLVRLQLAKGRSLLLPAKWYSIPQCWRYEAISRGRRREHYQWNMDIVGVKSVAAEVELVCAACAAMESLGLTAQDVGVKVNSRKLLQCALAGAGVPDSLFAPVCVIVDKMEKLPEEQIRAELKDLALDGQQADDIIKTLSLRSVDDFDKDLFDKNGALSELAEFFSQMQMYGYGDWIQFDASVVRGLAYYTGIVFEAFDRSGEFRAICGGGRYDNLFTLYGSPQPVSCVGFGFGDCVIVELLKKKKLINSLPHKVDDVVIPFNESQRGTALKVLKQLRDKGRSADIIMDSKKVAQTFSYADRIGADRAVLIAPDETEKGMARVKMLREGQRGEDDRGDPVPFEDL
UniProt P9WNZ1, whole entry: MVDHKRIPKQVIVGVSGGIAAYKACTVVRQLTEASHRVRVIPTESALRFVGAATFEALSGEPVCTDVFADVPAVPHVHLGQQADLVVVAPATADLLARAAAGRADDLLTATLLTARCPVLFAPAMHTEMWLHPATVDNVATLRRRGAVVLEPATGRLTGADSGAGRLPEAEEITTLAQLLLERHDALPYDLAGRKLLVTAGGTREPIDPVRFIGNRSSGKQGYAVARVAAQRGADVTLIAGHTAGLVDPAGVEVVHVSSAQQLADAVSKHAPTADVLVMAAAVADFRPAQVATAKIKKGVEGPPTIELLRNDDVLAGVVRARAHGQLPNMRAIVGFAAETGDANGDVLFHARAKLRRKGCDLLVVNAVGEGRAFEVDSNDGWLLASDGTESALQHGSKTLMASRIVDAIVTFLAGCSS

From ChEMBL document CHEMBL3988442, “University of Dundee, Small-Polar-MMV Screening Library” (2021).

A: 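Polyketide synthase Pks13, Mycobacterium tuberculosis (UniProt I6X8D2). Enzyme assay of the thioesterase domain of polyketide synthase 13; the read-out is not stated. Concentration: 30 µM. The record gives no direction; the compounds picked for IC50 retests had high values, so higher reads as stronger inhibition. About 67,000 compounds were tested under these conditions; 0.46% (about 300) showed 50% or more at least once.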
B: 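Histidine-tRNA ligase, Leishmania infantum (UniProt A4I591). Enzyme assay of histidyl-tRNA synthetase; the read-out is not stated. Tested at 30 µM. The record gives no direction; compounds that gave an IC50 in retests scored well above the rest, so higher reads as stronger inhibition. The assay is labelled LdHisRS but filed under L. infantum. About 69,000 compounds were tested under these conditions; 0.6% (about 410) showed 50% or more at least once.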
C: 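Coenzyme A biosynthesis protein CoaBC, Mycobacterium tuberculosis (UniProt P9WNZ1). Enzyme assay of CoaBC with a phosphate dye (Biomol Green) read at 650 nm. Tested at 30 µM. Higher reads as stronger inhibition, judged from the few compounds that gave an IC50. Most strong results did not repeat in a second test. Of about 67,000 compounds tested this way, about 40 (0.06%) reached 50% or more in at least one test.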

Results are given as percent effect.
The controls that fix the scale are not given in the record; negative values are as filed.
This is an unselected part of the compounds tested.
Two or more numbers in one place are separate tests of the same structure; such repeats can differ widely.

For CC(C)CN1CC(C(=O)NCCOc2ccc3c(c2)OCO3)CC1=O (stereo unspecified) the result was A: 1.017%; B: 11.61%; C: 0.1277%. With CCN1CC2(CC1=O)CN(C(=O)COC)CCN(S(C)(=O)=O)C2 (stereo unspecified) the screen gave A: -27.69%; B: 18.8%. Cc1nn(C)c2c(N3CCN(C(=O)C4CCC4)CC3)ncnc12 read A: -18.45%; B: 15.53%; C: 12.79%. CC(C)c1nc(CCn2cncn2)n(-c2ccc3c(c2)OCCO3)n1 read A: -13.48%; B: 14.29%; C: 3.904%. COCCOCC(=O)Nc1cc(C)ccc1F read A: 1.39%; B: 13.48%; C: -3.73%. With Cc1nc(CN2CCCC3(CCN(c4cccnc4)C3=O)C2)cs1 (stereo unspecified) the screen gave A: -0.9388%; B: 22.86%; C: -4.886%.

Result for Cc1cn2c(n1)CCC(NC(=O)c1[nH]nc(C)c1Br)C2 (stereo unspecified) was B: 10.34%; C: 4.178%. Result for Cc1ncnc2c1CCN(C(=O)Cc1ccccn1)CC2 was A: 1.69%; B: 7.692%; C: 2.506%. For Cc1ccc(S(=O)(=O)NCCc2cccnc2)cc1C the result was B: 9.821%; C: 7.438%. CC(C)Oc1cccc(F)c1C(C(=O)O)N1CCCC1 (stereo unspecified) read A: -5.661%; B: 8.333%; C: 13.42%. With CNc1nccnc1C1CN(C(=O)c2c[nH]cn2)CCO1 (stereo unspecified) the screen gave A: 2.518%; B: 7.092%; C: -2.822%. Result for CNC(=O)c1cc2c(nc1N(C)C)CCN(S(=O)(=O)C1CC1)CC2 was A: -6.575%; B: 4.854%; C: 0.3802%.

CCc1ncc(CN2CCC(Oc3ccccc3OC)CC2)cn1 read A: -17.11%; B: 18.18%; C: -3.065%. With Cc1nc(C)n(C2CCCN(C(=O)c3ccn(C(C)C)n3)C2)n1 (stereo unspecified) the screen gave A: -5.919%; B: 11.4%; C: 5.704%. For O=C(Nc1ccc2c(ccn2CCN2CCOCC2)c1)c1ccccn1 the result was A: 2.233%; B: 13.27%; C: -18.69%. Result for Cc1cccc(N(C)S(=O)(=O)c2cc(C(=O)O)cs2)c1C was A: -6.678%; B: 22.39%; C: -2.41%. With NCC(CO)Cc1cccc(OC(F)(F)F)c1 (stereo unspecified) the screen gave A: -3.372%; B: 1.036%; C: -2.166%. For NC(=O)CC1CCN(S(=O)(=O)c2cnn(-c3ccccc3)c2)CC1 the result was A: -26.03%; B: 10.99%; C: 22.22% & 27.39%.

Result for O=C(C1CC1)N1CCN2C[C@H](c3ccccc3)[C@@H](CO)[C@H]2C1 was A: 7.937%; B: 14.29%; C: -2.906%. With COCC1CCN(C(=O)c2cccc(S(=O)(=O)NC3CCCC3)c2)C1 (stereo unspecified) the screen gave A: -17.29%; B: 15.09%; C: 4.846%. With O=C(Cn1ccc2ccccc21)NCc1ccc(C(=O)O)cc1 the screen gave A: -33.22%; B: 20%; C: 4.184%. CC(=O)Nc1cc2c(cc1C)OCO2 gave A: -22.38%; B: -4.301%; C: 0.5612%.